For part of these data: For at least one compound, name, drawing or mass did not settle the structure. Some results were stated once for a whole list of compounds, not compound by compound.
system: Yersinia ybtT; test: not given; assay type: biochemical, Yersinia pestis; conditions: not given

Sequences of proteins named here, by UniProt entry; tags and fusion partners are left off. Residues count along the entry.
UniProt P49327, 2207-2511 limits assumed: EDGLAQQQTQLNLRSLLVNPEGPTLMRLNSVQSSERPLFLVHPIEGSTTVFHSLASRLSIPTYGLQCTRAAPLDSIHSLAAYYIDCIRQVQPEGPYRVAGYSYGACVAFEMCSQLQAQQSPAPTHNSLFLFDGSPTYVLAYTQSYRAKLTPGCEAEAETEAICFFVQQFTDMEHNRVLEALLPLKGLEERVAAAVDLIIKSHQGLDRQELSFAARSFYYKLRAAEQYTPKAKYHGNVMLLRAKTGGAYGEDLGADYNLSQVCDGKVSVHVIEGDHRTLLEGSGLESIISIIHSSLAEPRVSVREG

Row | Compound | inhibit Yersinia ybtT better than human FAS TE
1 | O=C1C2=C(Nc3nn(-c4ccccc4)c(O)c3C2c2ccccc2)c2ccccc21 (stereo not drawn) [6108152 (41), 3-hydroxy-2,4-diphenyl-4,10-dihydroindeno[1,2-b]pyrazolo[4,3-e] yridine-5(2H)-one] | at least 2 fold

target: T1, human FAS TE (Homo sapiens, UniProt P49327); test: Fluorogenic 4-MUH screening assay of recombinant FAS TE (primary and secondary screen); assay type: biochemical; conditions: FIG. 5
T1 construct: Expression of the recombinant thioesterase domain of FAS using pTrcHis-TOPO vector (Invitrogen) was as described in Kridel et al. (2004); His tag (from pTrcHis-TOPO vector)

Row | Compound | inhibit human FAS TE better than Yersinia ybtT
2 | N#CSC(C#N)Cc1ccc([N+](=O)[O-])cc1 (stereo not drawn) [5155679 (36), 3-(4-nitrophenyl)-2-thiocyanatopropane nitrile] | at least 2 fold
3 | N#CSC(C#N)Cc1cccc([N+](=O)[O-])c1 (stereo not drawn) [5155680 (35), 3-(3-nitrophenyl)-2-thiocyanatopropane nitrile] | at least 2 fold
4 | O=C1C=CC(=O)N1c1ccccc1N1C(=O)C=CC1=O [5215341 (17), 1,1′-(1,2-phenylene)bis(1H-pyrrole-2,5-dione)] | at least 2 fold
5 | O=[N+]([O-])c1cccc(-c2nnc(-c3cccc(F)c3)o2)c1 [5399387 (31), 2-(3-fluorophenyl)-5-(3-nitrophenyl)-1,3,4-oxadiazole] | at least 2 fold
6 | C=CCN1C(=O)/C(=C\c2cccc(OCc3ccccc3)c2)SC1=S [5550263 (26), (E)-3-allyl-5-(3-(benzyloxy)benzylidene)-2-thioxothiazolidin-4-one] | at least 2 fold
7 | CC(=O)c1ccc(N2C(=O)C=CC2=O)cc1 [5621839 (21), 1-(4-acetylphenyl)-1H-pyrrole-2,5-dione] | at least 2 fold
8 | COC(=O)c1ccc(N2C(=O)C=CC2=O)cc1 [5627858 (22), methyl 4-(2,5-dioxo-2,5-dihydro-1H-pyrrol-1-yl)benzoate] | at least 2 fold
9 | COc1ccc2c(c1)-c1c(sn(-c3cc(C)cc(C)c3)c1=S)C(C)(C)N2 [5630339 (45), 2-(3,5-dimethylphenyl)-8-methoxy-4,4-dimethyl-4,5-dihydroisothiazolo(5,4-c]quinoline-1(2H)-thione] | at least 2 fold
10 | O=[N+]([O-])c1cc([N+](=O)[O-])c2cccnc2c1Sc1nc2ccccc2s1 [5670760 (37), 2-(5,7-dinitroquinolin-8-ylthio)benzo[d]thiazole] | at least 2 fold
11 | COc1ccc(C2=CC(=O)C=CC2=O)cc1 [5760449 (39), 2-(4-methoxyphenyl)cyclohexa-2,5-diene-1,4-dione] | at least 2 fold
12 | COC(=O)CN1C(CCN2CCOCC2)=Nc2ccc(Br)cc2C1c1ccccc1 (stereo not drawn) [5809324 (38), methyl 2-(6-bromo-2-(2-morpholinoethyl)-4-phenylquinazolin-3(4H)-yl)acetate] | at least 2 fold
13 | CN1C(=O)/C(=C/c2ccc[nH]2)C(=O)N(c2ccccc2)C1=S [5810505 (58), (Z)-5-((1H-pyrrol-2-yl)methylene)-1-methyl-3-phenyl-2-thioxodihydropyrimidine-4,6(1H,5H)-dione] | at least 2 fold
14 | Cc1ccc(-c2ccc(C=C3C(=O)NC(=S)NC3=O)o2)c(Br)c1 [5843019 (47), 5-((5-(2-bromo-4-methylphenyl)furan-2-yl)methylene)-2-thioxodihydropyrimidine-4,6(1H,5H)-dione] | at least 2 fold
15 | N#C/C(=C\c1ccc(Cl)cc1Cl)C(=O)NCC1CCCO1 (stereo not drawn) [5869438 (42), (E)-2-cyano-3-(2,4-dichlorophenyl)-N-((tetrahydrofuran-2-yl)methyl)acrylamide] | at least 2 fold
16 | CN1C(=O)NC(=O)/C(=C/c2ccc(-c3ccc([N+](=O)[O-])cc3Br)o2)C1=O [5988102 (48), (Z)-5-((5-(2-bromo-4-nitrophenyl)furan-2-yl)methylene)-1-methylpyrimidine-2,4,6(1H,3H,5H)-trione] | at least 2 fold
17 | O=C1NN(c2ccccc2)C(=O)/C1=C1/C(=O)Nc2ccccc21 [5992802 (18), (E)-4-(2-oxoindolin-3-ylidene)-1-phenylpyrazolidine-3,5-dione] | at least 2 fold
18 | Cc1cccc(OCCOc2ccc(/C=N/N3C(=O)CSC3=S)cc2)c1 [6200627 (27), (E)-2-thioxo-3-(4-(2-(m-tolyloxy)ethoxy)benzylideneamino)thiazolidin-4-one] | at least 2 fold
19 | CN1C(=O)/C(=C\c2ccc(Sc3ccc(Cl)cc3)o2)SC1=S [6222372 (25), (E)-5-((5-(4-chlorophenylthio)furan-2-yl)methylene)-3-methyl-2-thioxothiazolidin-4-one] | at least 2 fold
20 | O=C1C=CC(=O)N1c1ccc(SC(F)F)cc1 [6237848 (19), 1-(4-(difluoromethylthio)phenyl)-1H-pyrrole-2,5-dione] | at least 2 fold
21 | O=C1C=CC(=O)N1c1ccccc1SC(F)(F)F [6237946 (23), 1-(2-(trifluoromethylthio)phenyl)-1H-pyrrole-2,5-dione] | at least 2 fold
22 | Cc1ccc(N2C(=O)C=CC2=O)c(Br)c1 [6238046 (20), 1-(2-bromo-4-methylphenyl)-1H-pyrrole-2,5-dione] | at least 2 fold
23 | CN(C)c1ccc(N2C(=O)C=CC2=O)cc1 [6238569 (28), 1-(4-(dimethylamino)phenyl)-1H-pyrrole-2,5-dione] | at least 2 fold
24 | COc1ccccc1N1C(=O)NC(=O)/C(=C/C=C/c2ccco2)C1=O [6238616 (54), (Z)-5-((E)-3-(furan-2-yl)allylidene)-1-(2-methoxyphenyl)pyrimidine-2,4,6(1H,3H,5H)-trione] | at least 2 fold
25 | COc1ccc(OC)c(N2C(=O)NC(=O)C(CCCc3ccccc3)C2=O)c1 (stereo not drawn) [6238755 (46), 1-(2,5-dimethoxyphenyl)-5-(3-phenylpropyl)pyrimidine-2,4,6(1H,3H,5H)-trione] | at least 2 fold
26 | CCOc1ccc(C2C(C(=O)OC)=CNC=C2C(=O)OC)cc1 [6368521 (44), dimethyl 4-(4-ethoxyphenyl)-1,4-dihydropyridine-3,5-dicarboxylate] | at least 2 fold

same assay, conditions: concentrations up to 100 μM

Row | Compound | ability to inhibit the FAS TE
27 | CCC1(c2ccccc2)C(=O)NC(=O)NC1=O [Phenobarbital, reference compound] | without effect

Reference: patent publication US20100305121A1, “NOVEL ANTAGONISTS OF THE HUMAN FATTY ACID SYNTHASE THIOESTERASE” (priority 2006, published 2010)
